Experimental data published in paper PMC6443784.
No constants are given. Whether binding was seen depends on the method and setting. In cells and extracts the contact can be indirect. Here binding means that the protein was enriched with, or labelled near, the bait; the list need not be complete.

Molecular target: T1, synthetic peptide corresponding to the coiled-coil motif of mouse EPG5 (mouse)
T1 sequence (peptide, biotin on the N-terminus): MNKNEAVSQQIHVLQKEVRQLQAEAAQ
Test: affinity purification with mass spectrometry; 1 mg biotinylated EPG5 coiled-coil peptide incubated with ES cell lysates, precipitated with anti-biotin beads, washed with lysis buffer, SDS-PAGE, in-gel digestion, LC-MS/MS; only the target purified

- binding: binds
B1: USP8 (endogenous, mouse ESCs) (enzyme, UniProt Q80U87 1-1080)
chain: MPAVASVPKELYLSSSLKDLNKKTEVKPEKTSTKNYIHSAQKIFKTAEECRLDRDEERAYVLYMKYVAVYNLIKKRPDFKQQQDYYLSILGPANIKKAIEEAERLSESLKLRYEEAEVRKQLEEKDRREEEQLQQQKRQEMGREDSGAAAKRSVENLLDSKTKTQRINGEKSEGAAAAERGAITAKELYTMMMDKNTSLIIMDARKIQDYQHSCILDSLSVPEEAISPGVTASWIEANLSDDSKDTWKKRGSVDYVVLLDWFSSAKDLLLGTTLRSLKDALFKWESKTVLRHEPLVLEGGYENWLLCYPQFTTNAKVTPPPRSRAEEVSVSLDFTYPSLEEPVPSKLPTQMPPPPIETNEKALLVTDQDEKLRLSTQPALAGPGAAPRAEASPIIQPAPATKSVPQVDRTKKPSVKLPEDHRIKSENTDQSGRVLSDRSTKPVFPSPTTMLTDEEKARIHQETALLMEKNKQEKELWDKQQKEQKEKLRREEQERKAGKTQDADERDSTENQHKAKDGQEKKDSKQTKTEDRELSADGAQEATGTQRQSKSEHEASDAKVPVEGKRCPTSEAQKRPADVSPASVSGELNAGKAQREPLTRARSEEMGRIVPGLPLGWAKFLDPITGTFRYYHSPTNTVHMYPPEMAPSSAPPSTPPTHKVKPQVPAERDREPSKLKRSYSSPDITQALQEEEKRRPAVTPMVNRENKPPCYPKAEISRLSASQIRNLNPVFGGSGPALTGLRNLGNTCYMNSILQCLCNAPHLADYFNRNCYQDDINRSNLLGHKGEVAEEFGIIMKALWTGQYRYISPKDFKVTIGKINDQFAGSSQQDSQELLLFLMDGLHEDLNKADNRKRHKEENNEHLDDLQAAEHAWQKHKQLNESIIVALFQGQFKSTVQCLTCRRRSRTFEAFMYLSLPLASTSKCTLQDCLRLFSKEEKLTDNNRFYCSHCRARRDSLKKIEIWKLPPVLLVHLKRFSYDGRWKQKLQTSVDFPLENLDLSQYVIGPKNSLKKYNLFSVSNHYGGLDGGHYTAYCKNAARQRWFKFDDHEVSDISVSSVRSSAAYILFYTSLGPRITDVAT
